This is one part of the list. Small differences around the control level are noise.

Amino acid sequences for entries named in this document (tags omitted). A change or cut given only in a name is not applied to a line headed by its entry.
UniProt P07339: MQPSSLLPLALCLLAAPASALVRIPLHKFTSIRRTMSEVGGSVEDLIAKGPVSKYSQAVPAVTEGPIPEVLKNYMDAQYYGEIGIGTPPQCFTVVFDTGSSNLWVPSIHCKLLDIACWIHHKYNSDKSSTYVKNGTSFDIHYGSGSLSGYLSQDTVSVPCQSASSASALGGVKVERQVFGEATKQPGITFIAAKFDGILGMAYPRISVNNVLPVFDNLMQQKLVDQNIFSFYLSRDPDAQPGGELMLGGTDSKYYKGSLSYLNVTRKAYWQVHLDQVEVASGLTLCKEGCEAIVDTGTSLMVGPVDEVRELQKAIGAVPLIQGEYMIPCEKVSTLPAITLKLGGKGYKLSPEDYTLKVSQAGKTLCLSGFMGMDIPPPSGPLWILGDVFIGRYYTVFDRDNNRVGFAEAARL
UniProt P05423: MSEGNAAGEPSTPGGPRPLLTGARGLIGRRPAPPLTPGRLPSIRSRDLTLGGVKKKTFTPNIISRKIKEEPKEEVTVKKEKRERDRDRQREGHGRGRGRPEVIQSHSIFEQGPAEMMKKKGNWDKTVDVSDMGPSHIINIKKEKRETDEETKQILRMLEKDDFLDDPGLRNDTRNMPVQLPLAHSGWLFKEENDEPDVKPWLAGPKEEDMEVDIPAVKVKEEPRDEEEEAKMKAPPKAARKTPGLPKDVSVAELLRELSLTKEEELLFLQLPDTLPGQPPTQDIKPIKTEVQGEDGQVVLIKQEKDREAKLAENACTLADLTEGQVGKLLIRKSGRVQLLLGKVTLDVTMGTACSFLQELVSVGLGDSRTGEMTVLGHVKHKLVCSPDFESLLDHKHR
UniProt P04083: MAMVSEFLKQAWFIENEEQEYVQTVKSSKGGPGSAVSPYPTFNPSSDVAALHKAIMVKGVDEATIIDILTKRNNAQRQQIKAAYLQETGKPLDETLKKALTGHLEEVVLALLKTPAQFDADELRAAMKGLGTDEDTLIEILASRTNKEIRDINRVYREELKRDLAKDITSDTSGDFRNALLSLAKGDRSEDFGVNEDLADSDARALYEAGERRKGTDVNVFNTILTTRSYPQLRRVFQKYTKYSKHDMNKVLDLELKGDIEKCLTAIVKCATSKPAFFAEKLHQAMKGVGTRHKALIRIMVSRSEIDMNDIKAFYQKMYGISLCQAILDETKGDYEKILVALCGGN
UniProt P07951, whole entry: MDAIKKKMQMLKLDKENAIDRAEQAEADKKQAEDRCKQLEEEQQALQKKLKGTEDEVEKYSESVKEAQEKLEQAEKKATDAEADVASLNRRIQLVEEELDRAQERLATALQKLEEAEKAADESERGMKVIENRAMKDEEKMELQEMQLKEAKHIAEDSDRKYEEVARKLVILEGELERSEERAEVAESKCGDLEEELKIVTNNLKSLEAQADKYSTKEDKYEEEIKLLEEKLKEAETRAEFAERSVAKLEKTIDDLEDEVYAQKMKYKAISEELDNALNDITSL
UniProt P0DJ93: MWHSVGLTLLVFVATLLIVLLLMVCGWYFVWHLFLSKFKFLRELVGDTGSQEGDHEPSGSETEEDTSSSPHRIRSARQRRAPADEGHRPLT
UniProt P07738: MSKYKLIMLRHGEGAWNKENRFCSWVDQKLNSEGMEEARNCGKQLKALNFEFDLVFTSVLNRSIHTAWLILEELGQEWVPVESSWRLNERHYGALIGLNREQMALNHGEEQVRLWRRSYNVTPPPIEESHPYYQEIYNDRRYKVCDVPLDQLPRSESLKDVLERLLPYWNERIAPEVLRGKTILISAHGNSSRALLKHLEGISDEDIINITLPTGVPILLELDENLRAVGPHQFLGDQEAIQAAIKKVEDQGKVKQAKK
UniProt P07195, whole entry, looked up: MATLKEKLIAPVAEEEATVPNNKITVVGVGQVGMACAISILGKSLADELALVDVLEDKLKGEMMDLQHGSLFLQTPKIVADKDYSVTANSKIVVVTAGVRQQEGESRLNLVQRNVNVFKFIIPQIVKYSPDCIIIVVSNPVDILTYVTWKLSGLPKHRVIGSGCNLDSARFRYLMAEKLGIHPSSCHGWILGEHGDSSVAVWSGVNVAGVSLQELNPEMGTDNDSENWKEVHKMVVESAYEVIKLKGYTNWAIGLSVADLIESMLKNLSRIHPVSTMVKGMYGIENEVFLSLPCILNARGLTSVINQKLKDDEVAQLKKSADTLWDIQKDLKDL
UniProt P11717, whole entry: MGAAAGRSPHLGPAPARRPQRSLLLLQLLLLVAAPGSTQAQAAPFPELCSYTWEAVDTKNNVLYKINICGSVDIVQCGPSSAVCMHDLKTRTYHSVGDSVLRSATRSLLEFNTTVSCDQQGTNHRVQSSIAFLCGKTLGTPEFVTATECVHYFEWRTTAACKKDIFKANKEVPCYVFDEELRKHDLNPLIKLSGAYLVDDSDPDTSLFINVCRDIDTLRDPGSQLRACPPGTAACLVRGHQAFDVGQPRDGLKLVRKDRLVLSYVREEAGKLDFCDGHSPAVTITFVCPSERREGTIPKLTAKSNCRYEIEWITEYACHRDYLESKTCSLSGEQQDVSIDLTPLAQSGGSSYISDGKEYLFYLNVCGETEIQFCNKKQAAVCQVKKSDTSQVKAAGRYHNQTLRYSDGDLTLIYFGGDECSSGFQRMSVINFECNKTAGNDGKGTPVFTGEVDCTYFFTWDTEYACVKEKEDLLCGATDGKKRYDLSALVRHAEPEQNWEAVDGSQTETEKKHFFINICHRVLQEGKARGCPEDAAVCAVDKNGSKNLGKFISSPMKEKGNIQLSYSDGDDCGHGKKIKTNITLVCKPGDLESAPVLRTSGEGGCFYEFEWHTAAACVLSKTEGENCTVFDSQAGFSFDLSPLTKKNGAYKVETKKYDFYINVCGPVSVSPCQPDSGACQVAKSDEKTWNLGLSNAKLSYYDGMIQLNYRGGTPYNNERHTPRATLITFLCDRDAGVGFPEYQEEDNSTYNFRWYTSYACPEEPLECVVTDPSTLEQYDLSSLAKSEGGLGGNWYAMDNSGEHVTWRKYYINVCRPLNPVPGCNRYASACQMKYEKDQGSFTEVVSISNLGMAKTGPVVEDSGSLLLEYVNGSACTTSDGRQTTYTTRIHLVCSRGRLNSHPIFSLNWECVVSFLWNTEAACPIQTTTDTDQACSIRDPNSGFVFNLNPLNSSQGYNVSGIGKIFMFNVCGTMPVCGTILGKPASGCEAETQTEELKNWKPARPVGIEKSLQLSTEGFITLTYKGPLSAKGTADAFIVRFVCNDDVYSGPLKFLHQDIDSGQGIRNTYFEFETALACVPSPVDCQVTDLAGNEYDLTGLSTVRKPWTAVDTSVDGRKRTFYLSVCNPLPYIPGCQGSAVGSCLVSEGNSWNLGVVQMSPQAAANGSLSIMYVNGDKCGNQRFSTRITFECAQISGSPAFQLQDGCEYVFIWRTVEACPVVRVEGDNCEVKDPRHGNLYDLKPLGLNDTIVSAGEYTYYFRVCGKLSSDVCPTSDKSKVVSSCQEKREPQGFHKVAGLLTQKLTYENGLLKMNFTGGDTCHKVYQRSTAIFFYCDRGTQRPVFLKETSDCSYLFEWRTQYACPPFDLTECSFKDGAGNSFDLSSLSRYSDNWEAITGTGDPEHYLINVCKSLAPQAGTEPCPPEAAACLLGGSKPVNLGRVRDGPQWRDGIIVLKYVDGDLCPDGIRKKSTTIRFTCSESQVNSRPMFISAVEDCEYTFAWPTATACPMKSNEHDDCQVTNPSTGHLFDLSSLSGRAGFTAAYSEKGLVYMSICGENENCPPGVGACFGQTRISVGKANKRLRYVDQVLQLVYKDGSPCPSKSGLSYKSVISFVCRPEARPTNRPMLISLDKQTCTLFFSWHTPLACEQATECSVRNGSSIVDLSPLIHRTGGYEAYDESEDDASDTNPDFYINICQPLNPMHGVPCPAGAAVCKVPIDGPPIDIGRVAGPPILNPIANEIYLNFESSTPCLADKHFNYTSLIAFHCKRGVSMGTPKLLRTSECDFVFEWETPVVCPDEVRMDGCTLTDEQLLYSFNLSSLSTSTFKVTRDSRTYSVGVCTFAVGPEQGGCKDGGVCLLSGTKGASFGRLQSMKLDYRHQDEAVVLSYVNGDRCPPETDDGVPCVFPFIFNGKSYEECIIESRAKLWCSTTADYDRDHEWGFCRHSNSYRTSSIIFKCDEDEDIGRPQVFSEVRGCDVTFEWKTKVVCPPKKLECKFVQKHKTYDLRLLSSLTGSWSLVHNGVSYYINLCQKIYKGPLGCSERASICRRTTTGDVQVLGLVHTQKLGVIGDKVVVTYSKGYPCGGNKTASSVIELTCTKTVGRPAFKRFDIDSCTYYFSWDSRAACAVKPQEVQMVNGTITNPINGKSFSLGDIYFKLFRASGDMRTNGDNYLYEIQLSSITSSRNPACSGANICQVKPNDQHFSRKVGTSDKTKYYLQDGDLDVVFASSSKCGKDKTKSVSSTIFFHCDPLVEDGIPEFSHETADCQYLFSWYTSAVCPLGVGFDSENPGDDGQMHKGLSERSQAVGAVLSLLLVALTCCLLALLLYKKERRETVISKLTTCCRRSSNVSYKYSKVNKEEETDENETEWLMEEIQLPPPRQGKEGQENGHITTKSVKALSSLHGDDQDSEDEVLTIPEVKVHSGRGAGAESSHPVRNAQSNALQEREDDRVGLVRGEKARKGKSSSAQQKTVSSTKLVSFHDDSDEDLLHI
UniProt P10412, whole entry: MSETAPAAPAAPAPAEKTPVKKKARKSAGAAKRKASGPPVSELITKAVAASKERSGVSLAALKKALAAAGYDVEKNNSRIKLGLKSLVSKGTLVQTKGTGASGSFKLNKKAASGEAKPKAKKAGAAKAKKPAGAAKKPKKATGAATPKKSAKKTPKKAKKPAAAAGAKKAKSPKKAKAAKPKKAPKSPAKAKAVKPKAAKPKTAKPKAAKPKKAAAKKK
UniProt P04181: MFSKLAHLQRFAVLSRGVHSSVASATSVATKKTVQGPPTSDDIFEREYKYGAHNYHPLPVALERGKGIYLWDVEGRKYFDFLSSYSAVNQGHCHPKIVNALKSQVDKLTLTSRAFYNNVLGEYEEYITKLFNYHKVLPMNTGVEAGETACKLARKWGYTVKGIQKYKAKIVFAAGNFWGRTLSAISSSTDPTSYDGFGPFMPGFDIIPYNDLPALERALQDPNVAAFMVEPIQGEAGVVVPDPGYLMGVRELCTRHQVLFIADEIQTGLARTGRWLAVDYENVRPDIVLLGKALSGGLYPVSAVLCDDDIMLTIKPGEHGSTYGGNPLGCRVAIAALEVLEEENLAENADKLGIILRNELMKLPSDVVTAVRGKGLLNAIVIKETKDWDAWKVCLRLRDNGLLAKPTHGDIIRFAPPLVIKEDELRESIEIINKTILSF
UniProt P12955: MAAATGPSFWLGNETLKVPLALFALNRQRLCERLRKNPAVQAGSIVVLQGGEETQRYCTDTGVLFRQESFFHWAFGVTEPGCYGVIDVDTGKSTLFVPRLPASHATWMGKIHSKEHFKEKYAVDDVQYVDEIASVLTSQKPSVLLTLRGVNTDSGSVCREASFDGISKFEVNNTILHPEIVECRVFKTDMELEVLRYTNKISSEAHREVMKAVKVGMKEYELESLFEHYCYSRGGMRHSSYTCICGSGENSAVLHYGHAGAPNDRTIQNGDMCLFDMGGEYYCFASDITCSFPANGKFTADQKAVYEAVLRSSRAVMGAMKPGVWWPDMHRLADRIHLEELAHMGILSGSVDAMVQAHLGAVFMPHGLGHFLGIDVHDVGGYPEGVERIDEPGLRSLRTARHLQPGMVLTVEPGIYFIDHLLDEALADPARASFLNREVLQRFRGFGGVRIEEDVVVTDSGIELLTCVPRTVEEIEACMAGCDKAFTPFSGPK
UniProt P09960: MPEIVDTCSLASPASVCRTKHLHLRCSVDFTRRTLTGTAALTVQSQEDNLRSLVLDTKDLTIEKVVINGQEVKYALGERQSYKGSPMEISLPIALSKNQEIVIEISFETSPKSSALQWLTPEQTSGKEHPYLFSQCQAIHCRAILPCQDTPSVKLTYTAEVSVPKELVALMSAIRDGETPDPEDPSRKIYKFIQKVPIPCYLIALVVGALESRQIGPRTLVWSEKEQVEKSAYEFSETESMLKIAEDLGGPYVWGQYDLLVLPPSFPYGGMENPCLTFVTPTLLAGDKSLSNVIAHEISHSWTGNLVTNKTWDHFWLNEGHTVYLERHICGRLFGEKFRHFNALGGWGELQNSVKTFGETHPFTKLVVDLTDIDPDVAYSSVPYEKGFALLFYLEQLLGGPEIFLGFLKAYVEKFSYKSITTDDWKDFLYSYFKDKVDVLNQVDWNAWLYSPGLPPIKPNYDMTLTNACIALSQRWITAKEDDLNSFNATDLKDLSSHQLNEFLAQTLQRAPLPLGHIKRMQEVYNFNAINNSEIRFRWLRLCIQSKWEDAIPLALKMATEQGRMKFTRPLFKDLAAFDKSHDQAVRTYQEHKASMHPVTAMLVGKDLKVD
UniProt P02511: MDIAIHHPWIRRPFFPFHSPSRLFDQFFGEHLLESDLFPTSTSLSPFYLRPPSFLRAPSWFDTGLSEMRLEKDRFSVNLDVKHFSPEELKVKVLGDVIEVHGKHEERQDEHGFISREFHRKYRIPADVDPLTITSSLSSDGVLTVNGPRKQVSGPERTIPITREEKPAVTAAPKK

Compound in the assay: CN[C@@H]1C[C@H]2O[C@@](C)([C@@H]1OC)n1c3ccccc3c3c4c(c5c6ccccc6n2c5c31)C(=O)NC4 [staurosporine]
Kind of assay: log2 fold change of tryptic peptide abundance, ligand vs vehicle (limited proteolysis) (log2 ratio); higher = more trypsin-susceptible (destabilized). The note with it: ligand concentration: 20 uM; sample: K562 cleared lysate; digestion: 4 min, 22 C (HT-PELSA RT4min, Orbitrap Astral).
Take “CTSD (peptide sequence: QPGITFIAAK, peptide start residue: 185) (UniProt P07339)”: the log2 fold change amounted to 0.363.

For the target “ATP1A1 (peptide sequence: YEPAAVSEQGDKK, peptide start residue: 10) (UniProt P05023)”, the log2 fold change was -0.475.

Take “ANXA3 (peptide sequence: MLISILTER, peptide start residue: 40) (UniProt P12429)”: the log2 fold change is 0.0841. In the case of “UniProt P06401 (peptide sequence: ILAGMVKPLLFHKK, peptide start residue: 920)” it was 0.533. The figure for “LMNA (peptide sequence: SVGGSGGGSFGDNLVTR, peptide start residue: 628) (UniProt P02545)” is 0.801; for “POLR3D (peptide sequence: NMPVQLPLAHSGWLFK, peptide start residue: 175) (UniProt P05423)” it is 0.579; for “PFKM (peptide sequence: NVLGHMQQGGSPTPFDR, peptide start residue: 657) (UniProt P08237)” it is 0.234.

As for “UniProt P0C0S8 (peptide sequence: AGLQFPVGRVHR, peptide start residue: 22)”, the log2 fold change was found to be 0.26.

For the target “UniProt P0C7P4 (peptide sequence: RLEVLDSTK, peptide start residue: 93)”, the log2 fold change is -0.165. As to “ANXA1 (peptide sequence: KGTDVNVFNTILTTRSYPQLR, peptide start residue: 214) (UniProt P04083)”, the log2 fold change is 0.94. The figure for “SNRPA1 (peptide sequence: NAIANASTLAEVER, peptide start residue: 206) (UniProt P09661)” is -0.13; for “DMD (peptide sequence: LGLLLHDSIQIPR, peptide start residue: 3234) (UniProt P11532)” it is 0.709.

With “UniProt P08908 (peptide sequence: DFQNAFK, peptide start residue: 158)”, the log2 fold change was -0.192. The figure for “TPR (peptide sequence: NIEELQQQNQR, peptide start residue: 542) (UniProt P12270)” is -0.345; for “TPM2 (peptide sequence: LEEAEKAADESER, peptide start residue: 77) (UniProt P07951)” it is -0.0836; for “ALAS1 (peptide sequence: TDGGDPSGLLK, peptide start residue: 158) (UniProt P13196)” it is 0.2. In the case of “ITGB1 (peptide sequence: WDTGENPIYK, peptide start residue: 775) (UniProt P05556)” it was -0.0939; in that of “SMIM13 (peptide sequence: APADEGHRPLT, peptide start residue: 81) (UniProt P0DJ93)”, -0.29. The figure for “BPGM (peptide sequence: KVEDQGKVK, peptide start residue: 247) (UniProt P07738)” is -0.425; for “CSTB (peptide sequence: AKHDELTYF, peptide start residue: 90) (UniProt P04080)” it is -0.335; for “NR2C1 (peptide sequence: HYGAVTCEGCK, peptide start residue: 124) (UniProt P13056)” it is 0.432. “LDHB (peptide sequence: VIGSGCNLDSAR, peptide start residue: 159) (UniProt P07195)”: the log2 fold change is -0.326.

“SLC3A2 (peptide sequence: LKLEPHEGLLLR, peptide start residue: 614) (UniProt P08195)”: the log2 fold change is 0.321.

As for “POLB (peptide sequence: IAEKIDEFLATGK, peptide start residue: 69) (UniProt P06746)”, the log2 fold change is -0.209. The figure for “HBQ1 (peptide sequence: TFLAFPATK, peptide start residue: 33) (UniProt P09105)” is 0.267; for “APP (peptide sequence: EWEEAER, peptide start residue: 412) (UniProt P05067)” it is -0.172. In the case of “IGF2R (peptide sequence: LVSFHDDSDEDLLHI, peptide start residue: 2477) (UniProt P11717)” it was -0.184; in that of “UniProt P08048 (peptide sequence: HILSVHTK, peptide start residue: 708)”, 0.47. In the case of “UniProt P00491 (peptide sequence: LGADAVGMSTVPEVIVAR, peptide start residue: 212)” it was 0.483; in that of “PARP1 (peptide sequence: VCSTNDLKELLIFNK, peptide start residue: 255) (UniProt P09874)”, 0.392; in that of “GSR (peptide sequence: TYSTSFTPMYHAVTK, peptide start residue: 442) (UniProt P00390)”, -0.48. On to “UniProt P00451 (peptide sequence: KIQEEIEK, peptide start residue: 1212)”, for which the log2 fold change came out at 0.00596. The figure for “HIST1H1E (peptide sequence: KPAAAAGAKK, peptide start residue: 160) (UniProt P10412)” is 0.986; for “OAT (peptide sequence: HQVLFIADEIQTGLAR, peptide start residue: 256) (UniProt P04181)” it is -0.476. In the case of “GBA (peptide sequence: LLLPHWAK, peptide start residue: 325) (UniProt P04062)” it was 0.292. In the case of “PEPD (peptide sequence: AFTPFSGPK, peptide start residue: 485) (UniProt P12955)” it was 0.042. With “LTA4H (peptide sequence: WEDAIPLALK, peptide start residue: 548) (UniProt P09960)”, the log2 fold change is -0.113.

On to “ISG15 (peptide sequence: LTQTVAHLK, peptide start residue: 100) (UniProt P05161)”, for which the log2 fold change was determined as 0.346. In the case of “CRYAB (peptide sequence: MDIAIHHPWIR, peptide start residue: 1) (UniProt P02511)” it was 0.061.

The record behind these values is the supplement of paper PMC12819154, “High-throughput peptide-centric local stability assay extends protein–ligand identification to membrane proteins, tissues and bacteria” (Nature Structural & Molecular Biology, 2025).
